Experimental data from the supplement of paper PMC12823440, “Inhibitors supercharge kinase turnover through native proteolytic circuits” (Nature, 2025).
Some of the results follow. Hit calls seldom repeat between salt and free forms of one compound.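 Kinases, fused to nanoluciferase, were expressed in K562 cells; luminescence was measured every 4 h from 2 to 18 h as percent of control (DMSO = 100%, positive control = 0%). A time point is decreased if signal falls significantly (2 sigma). Hits were called by the authors by a rule that is not shown; the count of time points alone does not decide it.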

Sequences of proteins named here, by UniProt entry; tags and fusion partners are left off. A change or cut given only in a name is not applied to a line headed by its entry.
UniProt P50613: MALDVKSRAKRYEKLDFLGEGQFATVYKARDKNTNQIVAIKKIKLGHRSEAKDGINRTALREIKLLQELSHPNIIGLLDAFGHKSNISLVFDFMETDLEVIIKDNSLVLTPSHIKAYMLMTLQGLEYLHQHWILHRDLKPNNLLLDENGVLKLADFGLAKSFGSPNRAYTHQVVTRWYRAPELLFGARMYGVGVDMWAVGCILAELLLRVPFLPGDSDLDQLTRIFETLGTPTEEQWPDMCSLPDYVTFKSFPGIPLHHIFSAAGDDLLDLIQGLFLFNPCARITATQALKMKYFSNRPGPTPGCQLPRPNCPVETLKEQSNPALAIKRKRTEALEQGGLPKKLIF
UniProt P50750, whole entry: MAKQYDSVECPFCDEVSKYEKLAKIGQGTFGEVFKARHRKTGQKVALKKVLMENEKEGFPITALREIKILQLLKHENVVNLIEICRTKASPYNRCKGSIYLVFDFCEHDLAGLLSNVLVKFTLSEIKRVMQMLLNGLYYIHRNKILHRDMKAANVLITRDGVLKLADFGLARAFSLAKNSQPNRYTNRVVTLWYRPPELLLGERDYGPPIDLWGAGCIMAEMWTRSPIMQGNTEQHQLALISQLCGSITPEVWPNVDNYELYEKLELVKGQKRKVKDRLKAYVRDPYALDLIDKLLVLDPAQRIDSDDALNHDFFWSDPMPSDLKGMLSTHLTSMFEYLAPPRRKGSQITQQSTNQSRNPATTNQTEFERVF
UniProt O96017, whole entry: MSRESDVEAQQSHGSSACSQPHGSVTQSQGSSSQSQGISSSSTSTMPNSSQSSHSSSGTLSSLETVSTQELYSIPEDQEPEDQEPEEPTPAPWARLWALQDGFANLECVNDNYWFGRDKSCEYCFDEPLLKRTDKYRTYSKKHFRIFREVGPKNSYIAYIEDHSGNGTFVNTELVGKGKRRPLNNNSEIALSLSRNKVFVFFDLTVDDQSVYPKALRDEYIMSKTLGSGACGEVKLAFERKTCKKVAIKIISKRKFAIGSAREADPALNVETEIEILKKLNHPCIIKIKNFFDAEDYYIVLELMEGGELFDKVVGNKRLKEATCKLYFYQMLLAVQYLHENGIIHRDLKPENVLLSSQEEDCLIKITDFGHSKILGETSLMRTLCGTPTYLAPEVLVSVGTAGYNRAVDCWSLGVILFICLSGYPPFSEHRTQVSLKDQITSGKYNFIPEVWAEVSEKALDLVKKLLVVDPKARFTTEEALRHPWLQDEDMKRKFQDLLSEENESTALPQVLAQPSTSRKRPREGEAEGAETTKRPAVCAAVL
UniProt P07333, whole entry: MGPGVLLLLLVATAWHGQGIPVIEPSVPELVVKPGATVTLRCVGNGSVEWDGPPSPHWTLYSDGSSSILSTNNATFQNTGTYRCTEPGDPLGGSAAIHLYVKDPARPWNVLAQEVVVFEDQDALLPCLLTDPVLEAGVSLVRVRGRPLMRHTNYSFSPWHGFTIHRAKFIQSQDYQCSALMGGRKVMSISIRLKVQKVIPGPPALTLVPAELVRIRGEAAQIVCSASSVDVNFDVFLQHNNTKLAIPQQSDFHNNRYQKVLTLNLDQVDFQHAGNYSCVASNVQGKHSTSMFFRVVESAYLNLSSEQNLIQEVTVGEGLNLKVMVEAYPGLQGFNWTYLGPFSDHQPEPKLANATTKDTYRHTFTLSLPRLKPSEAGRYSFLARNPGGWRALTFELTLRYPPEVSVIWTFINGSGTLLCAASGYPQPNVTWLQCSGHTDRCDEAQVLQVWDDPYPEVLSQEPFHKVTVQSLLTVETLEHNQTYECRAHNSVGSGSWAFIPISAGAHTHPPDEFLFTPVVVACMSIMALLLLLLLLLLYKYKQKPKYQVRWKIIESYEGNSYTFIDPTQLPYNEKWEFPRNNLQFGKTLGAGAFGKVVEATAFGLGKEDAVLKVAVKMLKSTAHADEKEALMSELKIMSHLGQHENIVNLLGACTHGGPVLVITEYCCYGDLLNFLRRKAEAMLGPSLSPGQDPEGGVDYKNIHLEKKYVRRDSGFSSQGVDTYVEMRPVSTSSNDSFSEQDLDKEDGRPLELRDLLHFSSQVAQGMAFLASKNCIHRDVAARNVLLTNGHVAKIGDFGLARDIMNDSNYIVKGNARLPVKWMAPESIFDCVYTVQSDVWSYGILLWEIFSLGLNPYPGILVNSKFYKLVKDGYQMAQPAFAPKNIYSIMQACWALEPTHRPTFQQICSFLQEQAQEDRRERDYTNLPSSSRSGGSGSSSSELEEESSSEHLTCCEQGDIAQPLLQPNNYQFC
UniProt P41240: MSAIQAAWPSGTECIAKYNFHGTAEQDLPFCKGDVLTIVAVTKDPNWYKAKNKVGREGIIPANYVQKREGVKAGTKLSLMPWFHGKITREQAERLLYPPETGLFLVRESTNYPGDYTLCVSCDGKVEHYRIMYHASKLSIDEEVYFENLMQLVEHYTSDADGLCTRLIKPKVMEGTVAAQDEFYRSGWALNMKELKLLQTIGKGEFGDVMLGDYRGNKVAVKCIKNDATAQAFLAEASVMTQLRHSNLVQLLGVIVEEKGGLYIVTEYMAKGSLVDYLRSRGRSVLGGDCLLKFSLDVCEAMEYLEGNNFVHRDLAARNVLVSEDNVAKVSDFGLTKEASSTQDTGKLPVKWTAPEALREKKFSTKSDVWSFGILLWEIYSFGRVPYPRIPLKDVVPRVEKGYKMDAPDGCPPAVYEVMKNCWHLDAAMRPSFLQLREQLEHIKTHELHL
UniProt P48729: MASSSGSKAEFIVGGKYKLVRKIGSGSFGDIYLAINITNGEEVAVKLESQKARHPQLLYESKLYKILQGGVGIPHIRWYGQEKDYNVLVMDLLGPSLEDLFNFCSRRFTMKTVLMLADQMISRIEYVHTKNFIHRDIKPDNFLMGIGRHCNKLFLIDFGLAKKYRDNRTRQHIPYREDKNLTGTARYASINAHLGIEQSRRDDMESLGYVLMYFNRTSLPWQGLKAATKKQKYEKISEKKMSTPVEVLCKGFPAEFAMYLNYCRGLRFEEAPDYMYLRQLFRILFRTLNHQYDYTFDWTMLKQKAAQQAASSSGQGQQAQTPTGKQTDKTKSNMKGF
UniProt P48730: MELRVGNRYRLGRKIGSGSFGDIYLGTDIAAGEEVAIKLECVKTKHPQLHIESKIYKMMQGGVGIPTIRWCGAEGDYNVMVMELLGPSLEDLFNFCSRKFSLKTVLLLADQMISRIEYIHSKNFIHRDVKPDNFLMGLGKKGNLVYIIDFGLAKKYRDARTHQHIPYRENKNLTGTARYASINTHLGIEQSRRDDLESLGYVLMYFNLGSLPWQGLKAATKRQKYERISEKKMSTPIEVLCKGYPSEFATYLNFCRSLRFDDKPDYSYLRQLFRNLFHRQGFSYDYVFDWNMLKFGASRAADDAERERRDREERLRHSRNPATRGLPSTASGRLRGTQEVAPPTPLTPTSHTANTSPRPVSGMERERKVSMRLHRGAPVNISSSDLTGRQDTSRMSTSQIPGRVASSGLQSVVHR
UniProt Q08345: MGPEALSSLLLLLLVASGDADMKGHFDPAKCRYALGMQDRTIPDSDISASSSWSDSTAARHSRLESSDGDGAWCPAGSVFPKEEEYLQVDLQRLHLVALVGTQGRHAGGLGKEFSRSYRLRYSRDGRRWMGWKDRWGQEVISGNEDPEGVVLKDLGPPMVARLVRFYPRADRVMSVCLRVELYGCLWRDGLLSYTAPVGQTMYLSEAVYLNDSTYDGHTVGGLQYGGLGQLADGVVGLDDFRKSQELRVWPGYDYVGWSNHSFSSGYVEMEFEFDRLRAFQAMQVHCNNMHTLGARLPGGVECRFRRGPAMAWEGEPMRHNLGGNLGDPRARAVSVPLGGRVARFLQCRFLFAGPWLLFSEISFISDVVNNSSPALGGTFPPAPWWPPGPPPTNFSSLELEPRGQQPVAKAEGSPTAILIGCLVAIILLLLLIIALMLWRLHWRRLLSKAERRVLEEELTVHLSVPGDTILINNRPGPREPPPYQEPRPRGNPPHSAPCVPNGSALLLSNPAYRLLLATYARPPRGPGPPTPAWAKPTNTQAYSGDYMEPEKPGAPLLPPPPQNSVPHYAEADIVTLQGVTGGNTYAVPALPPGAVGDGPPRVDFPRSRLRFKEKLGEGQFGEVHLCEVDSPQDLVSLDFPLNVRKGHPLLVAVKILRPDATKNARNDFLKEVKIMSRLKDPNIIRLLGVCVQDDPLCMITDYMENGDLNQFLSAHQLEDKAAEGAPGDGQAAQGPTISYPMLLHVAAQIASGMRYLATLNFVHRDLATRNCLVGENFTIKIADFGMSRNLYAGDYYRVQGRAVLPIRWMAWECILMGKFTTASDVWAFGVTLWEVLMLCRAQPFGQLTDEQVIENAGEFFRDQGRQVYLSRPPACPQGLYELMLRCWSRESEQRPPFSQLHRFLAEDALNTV
UniProt Q9Y463, whole entry, looked up: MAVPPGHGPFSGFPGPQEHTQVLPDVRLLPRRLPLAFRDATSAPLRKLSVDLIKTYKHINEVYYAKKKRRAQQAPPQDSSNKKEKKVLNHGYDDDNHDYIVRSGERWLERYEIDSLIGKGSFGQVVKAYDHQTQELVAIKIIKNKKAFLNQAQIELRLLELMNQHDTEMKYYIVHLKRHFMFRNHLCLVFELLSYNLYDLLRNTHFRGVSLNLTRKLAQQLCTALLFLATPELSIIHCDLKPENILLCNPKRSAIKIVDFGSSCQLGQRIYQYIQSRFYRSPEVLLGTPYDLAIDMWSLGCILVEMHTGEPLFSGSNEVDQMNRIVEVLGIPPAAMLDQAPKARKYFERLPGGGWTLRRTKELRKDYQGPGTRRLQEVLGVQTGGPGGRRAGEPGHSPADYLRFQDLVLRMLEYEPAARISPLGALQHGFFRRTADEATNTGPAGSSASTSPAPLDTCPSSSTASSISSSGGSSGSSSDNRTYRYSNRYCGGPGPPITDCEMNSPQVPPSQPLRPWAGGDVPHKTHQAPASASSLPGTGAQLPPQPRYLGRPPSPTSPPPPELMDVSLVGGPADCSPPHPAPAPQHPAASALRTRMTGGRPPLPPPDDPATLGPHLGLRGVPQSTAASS
UniProt Q92630: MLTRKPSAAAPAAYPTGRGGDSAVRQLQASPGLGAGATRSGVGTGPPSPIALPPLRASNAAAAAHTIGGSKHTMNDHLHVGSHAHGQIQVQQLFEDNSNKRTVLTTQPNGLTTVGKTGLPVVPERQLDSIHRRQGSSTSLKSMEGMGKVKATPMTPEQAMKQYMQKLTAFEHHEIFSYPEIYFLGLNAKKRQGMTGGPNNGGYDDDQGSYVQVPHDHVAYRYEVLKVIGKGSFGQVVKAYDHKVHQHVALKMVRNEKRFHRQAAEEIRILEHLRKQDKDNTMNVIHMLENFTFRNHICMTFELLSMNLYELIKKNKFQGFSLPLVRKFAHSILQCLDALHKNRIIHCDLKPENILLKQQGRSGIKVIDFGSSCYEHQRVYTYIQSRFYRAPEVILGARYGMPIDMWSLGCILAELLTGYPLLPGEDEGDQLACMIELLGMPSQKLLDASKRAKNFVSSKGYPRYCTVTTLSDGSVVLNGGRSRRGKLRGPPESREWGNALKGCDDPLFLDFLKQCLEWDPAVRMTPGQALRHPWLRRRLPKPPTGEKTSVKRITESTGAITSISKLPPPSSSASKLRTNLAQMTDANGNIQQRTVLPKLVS

Key:
Assay in all cases: kinase-Nluc reporter destabilization hit call (1 = scored as downregulated) (binary); higher = compound decreases kinase abundance
Conditions in all cases: K562; 2-18 h
CDK7 = CDK7 (UniProt P50613)
CDK9 = CDK9 (UniProt P50750)
CHEK2 = CHEK2 (UniProt O96017)
CSF1R = CSF1R (UniProt P07333)
CSK = CSK (UniProt P41240)
CSNK1A1 = CSNK1A1 (UniProt P48729)
CSNK1D = CSNK1D (UniProt P48730)
DDR1 = DDR1 (UniProt Q08345)
DYRK1B = DYRK1B (UniProt Q9Y463)
DYRK2 = DYRK2 (UniProt Q92630)

Measured: kinase-Nluc reporter destabilization hit call

COc1cccc(-c2cc(=O)c3ccccc3o2)c1N (10 µM)
inactive: CDK7 = 0 | CDK9 = 0 | CHEK2 = 0 | CSF1R 0 | CSK 0 | CSNK1A1 = 0 | CSNK1D 0 | DDR1 = 0 | DYRK1B 0 | DYRK2 = 0

CC(=O)O/N=C1/C(c2c(O)[nH]c3cc(Br)ccc23)=Nc2ccccc21 [BIO-acetoxime] (10 µM)
inactive: CDK7 = 0 | CDK9 = 0 | CHEK2 = 0 | CSF1R 0 | CSK 0 | CSNK1A1 = 0 | CSNK1D 0 | DDR1 = 0 | DYRK1B 0 | DYRK2 = 0

CC(C)Cn1ncc2cc(Oc3ccc(F)cc3F)c(C(=O)NCCN(C)C)cc21 [p38α inhibitor 1] (10 µM)
inactive: CDK7 = 0 | CDK9 = 0 | CHEK2 = 0 | CSF1R 0 | CSK 0 | CSNK1A1 = 0 | CSNK1D 0 | DDR1 = 0 | DYRK1B 0 | DYRK2 = 0

Fc1ccc(Cl)cc1-c1nc(Nc2ccncc2)c2nccnc2n1 (10 µM)
inactive: CDK7 = 0 | CDK9 = 0 | CHEK2 = 0 | CSF1R 0 | CSK 0 | CSNK1A1 = 0 | CSNK1D 0 | DDR1 = 0 | DYRK1B 0 | DYRK2 = 0

O=C(C#Cc1ccccc1)c1cccc([N+](=O)[O-])c1 (10 µM)
inactive: CDK7 = 0 | CDK9 = 0 | CHEK2 = 0 | CSF1R 0 | CSK 0 | CSNK1A1 = 0 | CSNK1D 0 | DDR1 = 0 | DYRK1B 0 | DYRK2 = 0

CN1CCN(c2ccc(-c3ccncc3-c3cc(F)c(O)c(F)c3)cc2)CC1 (10 µM)
inactive: CDK7 = 0 | CDK9 = 0 | CHEK2 = 0 | CSF1R 0 | CSK 0 | CSNK1A1 = 0 | CSNK1D 0 | DDR1 = 0 | DYRK1B 0 | DYRK2 = 0

CC1(C)C=Cc2c(ccc(C(=O)/C=C/c3ccc(O)cc3)c2O)O1 [4-Hydroxylonchocarpin] (10 µM)
inactive: CDK7 = 0 | CDK9 = 0 | CHEK2 = 0 | CSF1R 0 | CSK 0 | CSNK1A1 = 0 | CSNK1D 0 | DDR1 = 0 | DYRK1B 0 | DYRK2 = 0
